Where a chain is given by its changes, count along the chain named. The list shows a part of the results.

Conditions in all cases: yeast three-hybrid, YBZ-1, SC-Leu-His + 0.5 mM 3-AT, 4 days
For test [1], the target named is T1, PUM1 PUF domain R5-DFR C1007D + R1008F + Q1011R (Homo sapiens) (UniProt Q14671).
T1 sequence: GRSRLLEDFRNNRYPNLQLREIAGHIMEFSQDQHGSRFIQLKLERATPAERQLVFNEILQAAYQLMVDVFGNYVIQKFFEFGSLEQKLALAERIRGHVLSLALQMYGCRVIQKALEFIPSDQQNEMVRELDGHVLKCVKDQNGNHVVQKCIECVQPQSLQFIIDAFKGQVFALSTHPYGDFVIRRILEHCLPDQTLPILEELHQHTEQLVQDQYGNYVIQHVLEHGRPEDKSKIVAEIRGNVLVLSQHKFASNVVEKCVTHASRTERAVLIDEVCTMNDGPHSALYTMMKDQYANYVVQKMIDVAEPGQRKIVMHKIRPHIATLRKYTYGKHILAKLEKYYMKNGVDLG

For test [2], the target named is T2, PUM1 PUF domain R5-EAC C1007E + R1008A + Q1011C (Homo sapiens) (UniProt Q14671).
T2 sequence: T1 sequence with D180E, F181A, R184C

Test [3] concerns the target T3, PUM1 PUF domain R5-FHT C1007F + R1008H + Q1011T (Homo sapiens) (UniProt Q14671).
T3 sequence: T1 sequence with D180F, F181H, R184T

The target in test [4] is T4, PUM1 PUF domain R5-FRC C1007F + Q1011C (Homo sapiens) (UniProt Q14671).
T4 sequence: T1 sequence with D180F, F181R, R184C

The target of test [5] is T5, PUM1 PUF domain R5-GVR C1007G + R1008V + Q1011R (Homo sapiens) (UniProt Q14671).
T5 sequence: T1 sequence with D180G, F181V

For test [6], the target named is T6, PUM1 PUF domain R5-GYL C1007G + R1008Y + Q1011L (Homo sapiens) (UniProt Q14671).
T6 sequence: T1 sequence with D180G, F181Y, R184L

Test [7] has as its target T7, PUM1 PUF domain R5-KLM C1007K + R1008L + Q1011M (Homo sapiens) (UniProt Q14671).
T7 sequence: T1 sequence with D180K, F181L, R184M

The target of test [8] is T8, PUM1 PUF domain R5-KNS C1007K + R1008N + Q1011S (Homo sapiens) (UniProt Q14671).
T8 sequence: T1 sequence with D180K, F181N, R184S

Test [9] has as its target T9, PUM1 PUF domain R5-KRD C1007K + Q1011D (Homo sapiens) (UniProt Q14671).
T9 sequence: T1 sequence with D180K, F181R, R184D

The target in test [10] is T10, PUM1 PUF domain R5-LHP C1007L + R1008H + Q1011P (Homo sapiens) (UniProt Q14671).
T10 sequence: T1 sequence with D180L, F181H, R184P

Test [11] has as its target T11, PUM1 PUF domain R5-LWV C1007L + R1008W + Q1011V (Homo sapiens) (UniProt Q14671).
T11 sequence: T1 sequence with D180L, F181W, R184V

Test [12] addresses T12, PUM1 PUF domain R5-RCC C1007R + R1008C + Q1011C (Homo sapiens) (UniProt Q14671).
T12 sequence: T1 sequence with D180R, F181C, R184C

Test [13] addresses T13, PUM1 PUF domain R5-RGQ C1007R + R1008G (Homo sapiens) (UniProt Q14671).
T13 sequence: T1 sequence with D180R, F181G, R184Q

Test [14] has as its target T14, PUM1 PUF domain R5-RKN C1007R + R1008K + Q1011N (Homo sapiens) (UniProt Q14671).
T14 sequence: T1 sequence with D180R, F181K, R184N

The target in test [15] is T15, PUM1 PUF domain R5-RNS C1007R + R1008N + Q1011S (Homo sapiens) (UniProt Q14671).
T15 sequence: T1 sequence with D180R, F181N, R184S

For test [16], the target named is T16, PUM1 PUF domain R5-RQK C1007R + R1008Q + Q1011K (Homo sapiens) (UniProt Q14671).
T16 sequence: T1 sequence with D180R, F181Q, R184K

Test [17] deals with T17, PUM1 PUF domain R5-RSC C1007R + R1008S + Q1011C (Homo sapiens) (UniProt Q14671).
T17 sequence: T1 sequence with D180R, F181S, R184C

Test [18] has as its target T18, PUM1 PUF domain R5-SAC C1007S + R1008A + Q1011C (Homo sapiens) (UniProt Q14671).
T18 sequence: T1 sequence with D180S, F181A, R184C

Test [19] concerns the target T19, PUM1 PUF domain R5-SIS C1007S + R1008I + Q1011S (Homo sapiens) (UniProt Q14671).
T19 sequence: T1 sequence with D180S, F181I, R184S

For test [20], the target named is T20, PUM1 PUF domain R5-SKC C1007S + R1008K + Q1011C (Homo sapiens) (UniProt Q14671).
T20 sequence: T1 sequence with D180S, F181K, R184C

On to “GGCUAGAACUAGUGGAUCCCCCGGCGCCCGGCGGCUCGAGCCCGGGUAAGUGUAAAUAGUCUGCAUGCCGCCGGGCGCCAUGCCUGCAGGUCGACUCUAGAAAACAUG”, for which the binding signal (log2 enrichment (interaction score)) in test [1] worked out at 0.49; in [2] it was 0.47; in [3], 0.41; in [4] it was 0.54; in test [5], 0.36; in test [6], 0.6. The binding signal (log2 enrichment (interaction score)) in test [7] was found to be 0.48; in test [8], 0.52; in [9], 0.59; in test [10], 0.45; in test [11], 0.35; in test [12], 0.67. The binding signal (log2 enrichment (interaction score)) in test [13] was 0.44; in test [14], 0.58; in test [15] it was -0.38; in test [16] it was 0.37; in [17], 0.48; in [18], -0.06. Moreover, the binding signal (log2 enrichment (interaction score)) in test [19] was 0.39; in test [20], 0.47.

The record behind these values is publication PMC8384837.
